# Values quoted from earlier work as cited in patent publication US20220000852A1, “5-HT2A SEROTONIN RECEPTOR INVERSE AGONISTS OR ANTAGONISTS FOR USE IN REDUCING AMYLOID-BETA PEPTIDES AND ACCUMULATION OF AMYLOID PLAQUES” (ACADIA Pharmaceuticals Inc., priority 2016, published 2022).
# At least one compound was matched to its structure with a doubt left.
# Tested on: beta amyloid
# Conditions: Mouse Model of AD; cited from earlier work
smiles,measurement,value
CN(C)CCCC1(c2ccc(F)cc2)OCc2cc(C#N)ccc21 (stereo not shown) [citalopram],beta amyloid levels and Plaque Burden,lower beta amyloid levels and Plaque Burden
